Measured values: paper PMC5841288

Sequences of proteins named here, by UniProt entry; tags and fusion partners are left off. A change or cut given only in a name is not applied to a line headed by its entry.
UniProt Q96J02: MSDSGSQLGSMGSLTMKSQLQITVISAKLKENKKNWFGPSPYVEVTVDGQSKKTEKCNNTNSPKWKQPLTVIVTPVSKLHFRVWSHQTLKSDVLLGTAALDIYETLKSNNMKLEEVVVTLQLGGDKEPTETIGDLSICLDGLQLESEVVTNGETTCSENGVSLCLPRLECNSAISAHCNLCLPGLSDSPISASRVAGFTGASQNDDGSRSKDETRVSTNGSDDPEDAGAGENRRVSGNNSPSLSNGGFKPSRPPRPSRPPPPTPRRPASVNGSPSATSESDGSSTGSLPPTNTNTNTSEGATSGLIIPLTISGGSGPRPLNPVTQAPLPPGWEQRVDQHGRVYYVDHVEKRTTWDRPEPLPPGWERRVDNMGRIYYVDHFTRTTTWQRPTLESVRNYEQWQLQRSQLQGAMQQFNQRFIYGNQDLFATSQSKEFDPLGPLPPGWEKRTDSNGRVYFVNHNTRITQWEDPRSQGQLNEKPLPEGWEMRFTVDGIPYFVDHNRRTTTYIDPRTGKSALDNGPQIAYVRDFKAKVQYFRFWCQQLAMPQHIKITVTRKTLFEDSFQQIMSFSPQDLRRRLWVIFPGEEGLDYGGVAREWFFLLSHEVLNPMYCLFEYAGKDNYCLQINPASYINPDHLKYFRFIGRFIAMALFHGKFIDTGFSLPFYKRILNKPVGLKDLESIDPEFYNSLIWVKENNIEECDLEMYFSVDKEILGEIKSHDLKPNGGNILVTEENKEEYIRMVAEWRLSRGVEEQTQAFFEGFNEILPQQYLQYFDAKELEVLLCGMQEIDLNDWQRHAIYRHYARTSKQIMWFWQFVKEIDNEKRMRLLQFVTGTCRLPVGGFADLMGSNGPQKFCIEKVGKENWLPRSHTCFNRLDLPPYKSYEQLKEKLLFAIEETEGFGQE
UniProt P32121: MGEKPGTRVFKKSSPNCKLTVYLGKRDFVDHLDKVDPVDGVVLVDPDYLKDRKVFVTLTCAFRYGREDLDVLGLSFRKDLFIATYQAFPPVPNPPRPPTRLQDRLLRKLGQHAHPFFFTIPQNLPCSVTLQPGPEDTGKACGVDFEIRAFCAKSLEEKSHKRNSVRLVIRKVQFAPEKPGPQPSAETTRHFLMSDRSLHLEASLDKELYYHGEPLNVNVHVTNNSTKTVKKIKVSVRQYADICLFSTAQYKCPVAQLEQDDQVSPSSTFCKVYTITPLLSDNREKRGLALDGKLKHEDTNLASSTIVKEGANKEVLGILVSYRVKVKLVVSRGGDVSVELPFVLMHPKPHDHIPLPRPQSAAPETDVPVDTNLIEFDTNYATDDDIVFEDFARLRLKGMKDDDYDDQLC

Biological target: Itch (UniProt Q96J02)
Assay: co-IP; HEK293T cells co-transfected with the indicated plasmids, with or without Itch

How did the binding turn out when “β-arrestin2 (transfected, Fig. 5e) (from UniProt P32121 1-409)” was run?
Its binding is “binds”.

Results are given in words; binding and its absence hold for the method and conditions named. In cells and extracts the contact can be indirect. Binding can be weak; no strength is given.
